We go through 42 sequences from paper PMC7819943, “Rice protein-binding microarrays: a tool to detect cis-acting elements near promoter regions in rice”.

By UniProt entry, the sequences of proteins in these tests, tags left out.
UniProt Q0JBA9, entry or part of it: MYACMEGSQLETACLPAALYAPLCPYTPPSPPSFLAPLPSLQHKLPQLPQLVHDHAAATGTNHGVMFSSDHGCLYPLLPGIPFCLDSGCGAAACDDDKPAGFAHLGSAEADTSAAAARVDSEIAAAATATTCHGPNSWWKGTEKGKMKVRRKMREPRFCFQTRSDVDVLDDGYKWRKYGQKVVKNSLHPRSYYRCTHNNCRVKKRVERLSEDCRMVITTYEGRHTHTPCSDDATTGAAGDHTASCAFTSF

The other results are listed elsewhere or left out.

The target in this test is OsWRKY34 (Oryza sativa, UniProt Q0JBA9 1-250). Nature of the test: protein-binding microarray (RPBM); PBS, 2% BSA, 51.3 ng/ul salmon testes DNA, 50 uM zinc acetate, 200 nM TF, 25 C, 1 h; high values mean tight binding. The settings on record: protein: recombinant; tags: N-terminal polyhistidine and DsRed monomer fusion (pET32a); label: CyDye5-dUTP incorporated in the synthesized complementary strand; 3' TTTTT single-stranded linker to array surface; dsDNA, one strand shown. The method in brief:
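The binding signal is fluorescence intensity per feature, in arbitrary units, read on an Axon 4000B scanner. Polyhistidine- and DsRed-tagged transcription factors (N-terminal fusions) from E. coli BL21-CodonPlus were purified on Ni–NTA and applied at 200 nM for 1 h at 25 °C to a double-stranded, BSA-blocked custom Agilent array in buffer with 50 µM zinc acetate.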
Take “CCACGCAGGTTTGTTTTTGCTCTGTTTTCAGTTCCGATAACGGAGTCACCTAGTGCAG”: the binding signal was 8840 fluorescence intensity (a.u.). Under “ACCTTGGATCACTTAATATAACCATTTGTTTCATCCTGGACGGAGTCACCTAGTGCAG” stands 10500 fluorescence intensity (a.u.). As for “AGAACGCGTTACGGATTGAAGTGCTCTTTTTTTGTTTTTGCGGAGTCACCTAGTGCAG”, the binding signal was 9270 fluorescence intensity (a.u.). Under “TCTCCTCACGACATTCTCGCGCTCTCCCCTCCTGTAAAGACGGAGTCACCTAGTGCAG” stands 9260 fluorescence intensity (a.u.). Under “GAGGGCGAGGAGGGAAGGAGGGAGGGAGGCGACAGGCATGCGGAGTCACCTAGTGCAG” stands 8400 fluorescence intensity (a.u.); under “GCATCCCACATCCCTGTCTTTCTCCTCTCCTACCCTTCTTCGGAGTCACCTAGTGCAG”, 8940 fluorescence intensity (a.u.). Under “GATTTAGCCAGTATAATTTGGCTTCTTACCTATCCATTTTCGGAGTCACCTAGTGCAG” stands 9130 fluorescence intensity (a.u.). Take “AACTAAACACATCCTTATCGATGCTACCTTACCAAATTAACGGAGTCACCTAGTGCAG”: the binding signal is 10300 fluorescence intensity (a.u.). Under “GTGTCTCGTCTCCGCCACCACCGCCGTCCCGGTCCAACCGCGGAGTCACCTAGTGCAG” stands 8230 fluorescence intensity (a.u.); under “GAGAGGATGGTAGGTGATGCATGGTGGAGAGGGGAAAAAGCGGAGTCACCTAGTGCAG”, 8500 fluorescence intensity (a.u.). Under “CTGCATGTAGCCGTTCCGCCTTGCTGGCCGCTGACTCCTGCGGAGTCACCTAGTGCAG” stands 8650 fluorescence intensity (a.u.); under “CCCTCTTCTCTTGTACTTACTTGTGCTTGCTCTCTTCCATCGGAGTCACCTAGTGCAG”, 8220 fluorescence intensity (a.u.); under “GTTTTCTCCGACTCTGAGAATAGTTTTTCGTGCGCCATCTCGGAGTCACCTAGTGCAG”, 8180 fluorescence intensity (a.u.).

In the case of “AGTTTGCTTTGTTCTCATAAATATCAATGTGAAATACTTACGGAGTCACCTAGTGCAG”, the binding signal was 8680 fluorescence intensity (a.u.). Under “ATCCATCCATCCATCCATCCATCTCCCACCACCACACCTTCGGAGTCACCTAGTGCAG” stands 8900 fluorescence intensity (a.u.); under “CGGGCCACTTATATATCAGTTTCTTTGTCCTTACACAACCCGGAGTCACCTAGTGCAG”, 8110 fluorescence intensity (a.u.).

In the case of “CCTTTATATCATTATTTACATTGGACATATAGTCGATTGCCGGAGTCACCTAGTGCAG”, the binding signal was 8400 fluorescence intensity (a.u.). Under “CTCGACCACACATATATGTTCGATACATTCCATATCTTCCCGGAGTCACCTAGTGCAG” stands 10700 fluorescence intensity (a.u.); under “TTGTGTTGATGGATGATGCGATATCCTCTTCAGTGAATGCCGGAGTCACCTAGTGCAG”, 8040 fluorescence intensity (a.u.); under “ACCGTTTACTTGTGCTTTGTCCTCTTGTCGCCACGTCCCACGGAGTCACCTAGTGCAG”, 15600 fluorescence intensity (a.u.).

On to “GTTAATAATTTCACCGGACTTTATATATCTACTCCTTCGCCGGAGTCACCTAGTGCAG”, for which the binding signal was 8190 fluorescence intensity (a.u.). Under “TTCGTCGCTCGGTCTGTGCCTGCTCCCTTCCTTGCTGCTCCGGAGTCACCTAGTGCAG” stands 9390 fluorescence intensity (a.u.). Under “TAGAGGTGGGCGGTAGGGGCTATTTCTGCAATTTTTTGGTCGGAGTCACCTAGTGCAG” stands 9680 fluorescence intensity (a.u.); under “GCCACACGTGCGACACGTAGACCAAAACCACCGCGGATTGCGGAGTCACCTAGTGCAG”, 8090 fluorescence intensity (a.u.).

With “GAGCCTTTTTTTTTTTACCTCCCTTTCTTCTTCTTTTTTCCGGAGTCACCTAGTGCAG”, the binding signal was 13200 fluorescence intensity (a.u.). Under “GCACTCCCTTTAGCCAGTTACCAAAAATATCTTTTGCATTCGGAGTCACCTAGTGCAG” stands 8450 fluorescence intensity (a.u.). As for “CCTCGGCTACACACCCATGACCCATCCCACCACCACCTGTCGGAGTCACCTAGTGCAG”, the binding signal was 10600 fluorescence intensity (a.u.). Under “TATATATATATATATATATATATATATATATATGGAGTATCGGAGTCACCTAGTGCAG” stands 24600 fluorescence intensity (a.u.); under “GGTCGGGCCGCATTGATTGCACATCTTGTCCTCATGCCTTCGGAGTCACCTAGTGCAG”, 8550 fluorescence intensity (a.u.). Under “TCTTCTTTTTATCGTCTAGTATCTATATTCGTAGAGTTTGCGGAGTCACCTAGTGCAG” stands 8700 fluorescence intensity (a.u.); under “CTCGTCTCTCGGTCTCGTTCCCGTACACGTCGCGATGTGACGGAGTCACCTAGTGCAG”, 8400 fluorescence intensity (a.u.); under “ATTTCCTCAACAATCTATTAGGTTTTGTGCTCTCACTAATCGGAGTCACCTAGTGCAG”, 8330 fluorescence intensity (a.u.).

As for “CCATCCATGTTACTATTCTCTACCACGGTACACTCGCGAGCGGAGTCACCTAGTGCAG”, the binding signal was 9440 fluorescence intensity (a.u.). Under “CATTTTTTTAGCTTGTTCTTCCTTGTGTCACAAACATTTCCGGAGTCACCTAGTGCAG” stands 11300 fluorescence intensity (a.u.); under “ACCCAAGCTCTCTGGGATGTCACATGTATTATACCCCTTGCGGAGTCACCTAGTGCAG”, 10100 fluorescence intensity (a.u.). Regarding “GCTGCCACTATCAACCACCACAGTATGCCACTTCCACTGTCGGAGTCACCTAGTGCAG”, the binding signal was 9010 fluorescence intensity (a.u.).

Consider “AGTTTTCCTCTGTTTGTTCTCTTCTCACGCGTTCTACGCTCGGAGTCACCTAGTGCAG”, for which the binding signal is 13100 fluorescence intensity (a.u.).

Turning to “TCTTTCCTATTTCGGTAATTATTGTTTTGCATTTACTATTCGGAGTCACCTAGTGCAG”, the binding signal is 8860 fluorescence intensity (a.u.).

Consider “CCTCCGTTTTCGCCACTAAAACCAACTTTGCCCTCTCTCTCGGAGTCACCTAGTGCAG”, for which the binding signal is 9270 fluorescence intensity (a.u.). Under “CTCTCCAGTCTCCAGTGCTCTCGAGTCTCGACGCTCGCCTCGGAGTCACCTAGTGCAG” stands 8840 fluorescence intensity (a.u.); under “CAATACCTTGCAATGAAGTACCCTTTTAGAATATGGTTTTCGGAGTCACCTAGTGCAG”, 8410 fluorescence intensity (a.u.); under “TTGCTCCGTTCAACGCCTCTTCCCCAGCTTCACAGTACTCCGGAGTCACCTAGTGCAG”, 11200 fluorescence intensity (a.u.).
